Assay results from paper PMC6370856, “Peptidyl prolyl cis/trans isomerase activity on the cell surface correlates with extracellular matrix development” (Communications Biology, 2019).

Tested on: collagen hydrogel (Type I, rat-tail)
Assay: Step-strain rheological measurement, self-healing of collagen hydrogel
Settings: 9 micromolar CypA
Procedure: Another important feature of the dynamic ECMs is their self-healing property, which can be tested using a step-strain rheological measurement. A strong strain is applied to liquify the materials, and the recovery of storage modulus is followed (self-healing) (Fig. 1b). Collagen hydrogel can only partially recover its storage modulus after the first cycle. The rate and extent of recovery were unchanged over the following cycles.
To minimize sample evaporation at 37 °C, a tissue paper wet in HEPEs buffer (10 mM, pH 7.8) was placed inside the H-PTD chamber to increase the humidity. […] The cone and plate were treated with plasma for 5 min to increase the hydrophilicity of the metal surface.

CypA: recombinant cyclophilin A, a PPIase, expressed in E. coli
Storage Modulus, Mean (Time 119.5 min): 6.055 Pa | Storage Modulus, Mean (Time 120 min): 7.357 Pa | Storage Modulus, Mean (Time 120.5 min): 7.231 Pa | Storage Modulus, Mean (Time 121 min): 6.003 Pa | Storage Modulus, Mean (Time 121.5 min): 6.28 Pa | Storage Modulus, Mean (Time 122.5 min): 6.561 Pa | Storage Modulus, Mean (Time 123.5 min): 5.991 Pa | Storage Modulus, Mean (Time 124 min): 6.359 Pa | Storage Modulus, Mean (Time 124.5 min): 6.061 Pa | Storage Modulus, Mean (Time 125 min): 6.287 Pa | Storage Modulus, Mean (Time 125.17 min): 1.06 Pa | Storage Modulus, Mean (Time 125.33 min): 1.01 Pa | Storage Modulus, Mean (Time 125.5 min): 0.9577 Pa | Storage Modulus, Mean (Time 125.67 min): 0.9388 Pa | Storage Modulus, Mean (Time 125.83 min): 0.9204 Pa | Storage Modulus, Mean (Time 126.17 min): 0.89 Pa | Storage Modulus, Mean (Time 126.33 min): 0.872 Pa | Storage Modulus, Mean (Time 126.67 min): 0.8555 Pa | Storage Modulus, Mean (Time 127.17 min): 3.383 Pa | Storage Modulus, Mean (Time 127.67 min): 4.721 Pa | Storage Modulus, Mean (Time 128.17 min): 4.696 Pa | Storage Modulus, Mean (Time 128.67 min): 4.62 Pa | Storage Modulus, Mean (Time 129.17 min): 5.232 Pa | Storage Modulus, Mean (Time 129.67 min): 5.406 Pa | Storage Modulus, Mean (Time 130.17 min): 5.001 Pa | Storage Modulus, Mean (Time 131.17 min): 5.373 Pa | Storage Modulus, Mean (Time 131.67 min): 5.467 Pa | Storage Modulus, Mean (Time 132.17 min): 5.595 Pa | Storage Modulus, Mean (Time 132.67 min): 5.715 Pa | Storage Modulus, Mean (Time 133.17 min): 5.9 Pa | Storage Modulus, Mean (Time 133.67 min): 4.866 Pa | Storage Modulus, Mean (Time 134.17 min): 5.859 Pa | Storage Modulus, Mean (Time 135.17 min): 5.531 Pa | Storage Modulus, Mean (Time 135.67 min): 5.885 Pa | Storage Modulus, Mean (Time 136.17 min): 5.289 Pa | Storage Modulus, Mean (Time 137.17 min): 5.861 Pa | Storage Modulus, Mean (Time 137.67 min): 6.055 Pa | Storage Modulus, Mean (Time 138.17 min): 7.1716 Pa | Storage Modulus, Mean (Time 138.67 min): 5.642 Pa | Storage Modulus, Mean (Time 139.17 min): 5.563 Pa | Storage Modulus, Mean (Time 139.67 min): 6.086 Pa | Storage Modulus, Mean (Time 140.17 min): 5.581 Pa | Storage Modulus, Mean (Time 140.67 min): 5.997 Pa | Storage Modulus, Mean (Time 141.17 min): 6.697 Pa | Storage Modulus, Mean (Time 141.67 min): 6.504 Pa | Storage Modulus, Mean (Time 142.17 min): 6.313 Pa | Storage Modulus, Mean (Time 142.67 min): 5.125 Pa | Storage Modulus, Mean (Time 143.17 min): 5.799 Pa | Storage Modulus, Mean (Time 143.67 min): 6.439 Pa | Storage Modulus, Mean (Time 144.17 min): 6.161 Pa | Storage Modulus, Mean (Time 144.67 min): 6.36 Pa | Storage Modulus, Mean (Time 145.17 min): 6.452 Pa | Storage Modulus, Mean (Time 145.67 min): 6.29 Pa | Storage Modulus, Mean (Time 146.67 min): 6.852 Pa | Storage Modulus, Mean (Time 147.17 min): 6.716 Pa | Storage Modulus, Mean (Time 147.67 min): 6.279 Pa | Storage Modulus, Mean (Time 148.17 min): 6.399 Pa | Storage Modulus, Mean (Time 148.67 min): 6.131 Pa | Storage Modulus, Mean (Time 149.17 min): 7.082 Pa | Storage Modulus, Mean (Time 149.67 min): 6.553 Pa | Storage Modulus, Mean (Time 150.17 min): 7.343 Pa | Storage Modulus, Mean (Time 150.67 min): 6.787 Pa | Storage Modulus, Mean (Time 151.17 min): 7.29 Pa | Storage Modulus, Mean (Time 151.67 min): 6.95 Pa | Storage Modulus, Mean (Time 152.17 min): 6.459 Pa | Storage Modulus, Mean (Time 152.67 min): 6.8231 Pa | Storage Modulus, Mean (Time 153.17 min): 6.988 Pa | Storage Modulus, Mean (Time 153.67 min): 7.667 Pa | Storage Modulus, Mean (Time 154.17 min): 8.095 Pa | Storage Modulus, Mean (Time 154.67 min): 7.332 Pa | Storage Modulus, Mean (Time 155.17 min): 7.02 Pa | Storage Modulus, Mean (Time 155.67 min): 7.432 Pa | Storage Modulus, Mean (Time 156.17 min): 6.372 Pa | Storage Modulus, Mean (Time 156.67 min): 7.863 Pa
